Data taken from PMC11186368.
These are yes or no findings as the source states them, for the method shown. For part of these data: In cells and extracts the contact can be indirect. Some results given as binding are weak or reduced against the parent protein; the word gives no strength. For part of these data: Tags and fused reporters may be left off the sequences shown.

Sequences of proteins named here, by UniProt entry; tags and fusion partners are left off.
UniProt P53350: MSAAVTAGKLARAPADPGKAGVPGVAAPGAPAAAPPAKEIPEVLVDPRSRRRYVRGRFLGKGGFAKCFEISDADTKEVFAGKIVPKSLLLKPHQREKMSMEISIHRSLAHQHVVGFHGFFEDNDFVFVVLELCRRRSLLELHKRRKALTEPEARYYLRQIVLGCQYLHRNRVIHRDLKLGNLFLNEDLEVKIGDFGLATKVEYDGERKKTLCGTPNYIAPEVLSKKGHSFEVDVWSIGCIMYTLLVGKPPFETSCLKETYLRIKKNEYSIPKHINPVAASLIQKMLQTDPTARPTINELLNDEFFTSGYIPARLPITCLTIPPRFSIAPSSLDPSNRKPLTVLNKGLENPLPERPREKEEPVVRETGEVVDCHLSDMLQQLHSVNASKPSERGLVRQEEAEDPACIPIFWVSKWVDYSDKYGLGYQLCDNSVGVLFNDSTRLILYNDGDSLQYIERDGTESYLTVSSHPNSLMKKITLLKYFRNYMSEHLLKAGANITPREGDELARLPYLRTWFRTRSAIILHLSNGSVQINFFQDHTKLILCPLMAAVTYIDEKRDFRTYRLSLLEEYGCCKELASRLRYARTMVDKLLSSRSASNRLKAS
UniProt Q969H0: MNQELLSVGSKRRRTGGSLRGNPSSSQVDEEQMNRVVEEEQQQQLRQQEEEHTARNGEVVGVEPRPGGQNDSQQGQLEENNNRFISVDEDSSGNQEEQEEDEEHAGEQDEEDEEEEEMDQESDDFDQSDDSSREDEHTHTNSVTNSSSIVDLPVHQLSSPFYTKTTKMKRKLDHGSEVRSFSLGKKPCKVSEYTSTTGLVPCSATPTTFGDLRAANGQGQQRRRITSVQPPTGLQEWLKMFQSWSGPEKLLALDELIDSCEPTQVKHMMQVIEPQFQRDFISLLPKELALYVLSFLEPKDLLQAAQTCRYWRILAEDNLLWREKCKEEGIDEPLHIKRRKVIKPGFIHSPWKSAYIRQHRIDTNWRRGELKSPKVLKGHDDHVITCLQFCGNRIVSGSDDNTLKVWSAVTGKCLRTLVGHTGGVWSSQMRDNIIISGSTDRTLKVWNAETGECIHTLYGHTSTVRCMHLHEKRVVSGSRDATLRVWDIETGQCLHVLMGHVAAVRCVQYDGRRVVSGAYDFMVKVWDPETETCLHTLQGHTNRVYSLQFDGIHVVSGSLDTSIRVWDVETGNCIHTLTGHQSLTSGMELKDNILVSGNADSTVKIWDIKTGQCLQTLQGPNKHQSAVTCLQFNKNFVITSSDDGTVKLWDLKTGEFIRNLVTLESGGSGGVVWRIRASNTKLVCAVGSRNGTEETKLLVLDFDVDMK
UniProt Q14980: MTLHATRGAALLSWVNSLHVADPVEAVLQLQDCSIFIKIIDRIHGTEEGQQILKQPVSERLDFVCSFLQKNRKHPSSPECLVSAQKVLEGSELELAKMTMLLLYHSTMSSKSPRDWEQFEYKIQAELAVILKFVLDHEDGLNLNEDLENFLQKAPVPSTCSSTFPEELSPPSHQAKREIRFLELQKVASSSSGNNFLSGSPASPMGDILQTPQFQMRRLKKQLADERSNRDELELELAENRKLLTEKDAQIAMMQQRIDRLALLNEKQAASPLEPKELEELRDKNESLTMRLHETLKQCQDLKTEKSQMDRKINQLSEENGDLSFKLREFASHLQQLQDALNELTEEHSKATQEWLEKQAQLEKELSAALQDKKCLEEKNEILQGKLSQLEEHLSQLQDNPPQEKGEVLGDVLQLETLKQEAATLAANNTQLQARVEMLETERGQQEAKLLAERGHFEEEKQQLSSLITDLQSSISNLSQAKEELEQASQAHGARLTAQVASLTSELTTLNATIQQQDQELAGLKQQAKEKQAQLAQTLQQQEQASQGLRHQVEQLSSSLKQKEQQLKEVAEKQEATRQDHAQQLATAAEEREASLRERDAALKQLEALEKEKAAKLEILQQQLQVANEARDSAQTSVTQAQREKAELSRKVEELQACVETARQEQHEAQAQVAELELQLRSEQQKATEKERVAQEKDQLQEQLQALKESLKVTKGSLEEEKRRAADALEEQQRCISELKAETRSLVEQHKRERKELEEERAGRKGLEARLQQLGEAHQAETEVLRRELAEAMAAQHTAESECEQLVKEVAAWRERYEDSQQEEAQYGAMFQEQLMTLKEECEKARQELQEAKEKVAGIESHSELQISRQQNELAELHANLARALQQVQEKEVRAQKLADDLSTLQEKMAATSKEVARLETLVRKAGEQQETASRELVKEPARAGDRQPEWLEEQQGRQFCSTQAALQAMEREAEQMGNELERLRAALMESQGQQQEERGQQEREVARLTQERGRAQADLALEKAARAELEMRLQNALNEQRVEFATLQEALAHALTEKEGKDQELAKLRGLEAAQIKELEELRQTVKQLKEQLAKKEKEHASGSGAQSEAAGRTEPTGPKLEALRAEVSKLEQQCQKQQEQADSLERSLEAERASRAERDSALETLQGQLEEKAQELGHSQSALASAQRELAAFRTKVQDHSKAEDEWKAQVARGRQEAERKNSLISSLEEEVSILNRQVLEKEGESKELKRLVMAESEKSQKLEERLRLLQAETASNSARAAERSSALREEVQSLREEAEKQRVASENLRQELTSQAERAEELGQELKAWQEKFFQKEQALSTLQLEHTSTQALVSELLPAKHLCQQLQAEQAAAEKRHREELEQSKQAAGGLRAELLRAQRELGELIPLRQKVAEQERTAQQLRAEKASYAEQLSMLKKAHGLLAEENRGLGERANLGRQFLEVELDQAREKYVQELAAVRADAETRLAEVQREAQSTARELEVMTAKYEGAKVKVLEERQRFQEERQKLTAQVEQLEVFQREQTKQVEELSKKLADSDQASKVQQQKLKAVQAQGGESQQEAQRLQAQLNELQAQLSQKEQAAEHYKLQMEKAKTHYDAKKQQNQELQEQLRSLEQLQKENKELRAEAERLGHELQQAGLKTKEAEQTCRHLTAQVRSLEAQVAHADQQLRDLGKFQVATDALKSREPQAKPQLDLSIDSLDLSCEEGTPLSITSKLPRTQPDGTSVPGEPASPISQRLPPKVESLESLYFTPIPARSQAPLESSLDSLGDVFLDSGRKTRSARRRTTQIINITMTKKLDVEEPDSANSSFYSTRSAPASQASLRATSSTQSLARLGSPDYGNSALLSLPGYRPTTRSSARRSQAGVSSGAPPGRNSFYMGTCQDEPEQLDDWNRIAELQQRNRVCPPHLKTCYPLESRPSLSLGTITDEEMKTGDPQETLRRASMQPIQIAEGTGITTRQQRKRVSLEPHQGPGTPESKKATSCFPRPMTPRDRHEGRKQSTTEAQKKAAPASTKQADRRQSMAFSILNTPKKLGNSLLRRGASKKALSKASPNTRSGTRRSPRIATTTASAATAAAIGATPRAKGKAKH
UniProt P63208: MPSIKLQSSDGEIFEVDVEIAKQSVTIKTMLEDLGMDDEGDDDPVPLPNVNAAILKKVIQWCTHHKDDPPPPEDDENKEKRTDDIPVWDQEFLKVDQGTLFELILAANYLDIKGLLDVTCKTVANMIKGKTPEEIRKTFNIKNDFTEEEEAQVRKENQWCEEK

Assays:
[1] = molecular target: T1, Cysteine-rich angiogenic inducer 61 (CYR61), endogenous (human (endogenous in HeLa, MDA-MB-231, H1299)) (UniProt O00622); test: co-IP; endogenous proteins; cell lysates (RIPA buffer) of HeLa, for tubulins also MDA-MB-231 and H1299, immunoprecipitated with antibody or IgG overnight at 4 °C, washed with NETN buffer, immunoblot
T1 sequence: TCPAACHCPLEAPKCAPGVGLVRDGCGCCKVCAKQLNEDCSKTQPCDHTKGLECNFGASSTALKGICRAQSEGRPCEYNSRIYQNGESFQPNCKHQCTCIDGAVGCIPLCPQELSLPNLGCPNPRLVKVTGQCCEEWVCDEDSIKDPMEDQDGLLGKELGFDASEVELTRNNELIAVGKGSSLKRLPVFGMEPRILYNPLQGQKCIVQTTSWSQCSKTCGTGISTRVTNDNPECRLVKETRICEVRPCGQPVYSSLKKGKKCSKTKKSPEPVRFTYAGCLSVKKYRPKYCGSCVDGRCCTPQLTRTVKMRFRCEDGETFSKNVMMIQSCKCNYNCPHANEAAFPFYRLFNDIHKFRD

[2] = molecular target: T2, Myc-CYR61 (HEK293T) (human) (UniProt O00622); test: co-IP; HEK293T cells co-expressing Myc-CYR61 and Flag-PLK1; anti-Myc or anti-Flag beads; immunoblot
T2 sequence: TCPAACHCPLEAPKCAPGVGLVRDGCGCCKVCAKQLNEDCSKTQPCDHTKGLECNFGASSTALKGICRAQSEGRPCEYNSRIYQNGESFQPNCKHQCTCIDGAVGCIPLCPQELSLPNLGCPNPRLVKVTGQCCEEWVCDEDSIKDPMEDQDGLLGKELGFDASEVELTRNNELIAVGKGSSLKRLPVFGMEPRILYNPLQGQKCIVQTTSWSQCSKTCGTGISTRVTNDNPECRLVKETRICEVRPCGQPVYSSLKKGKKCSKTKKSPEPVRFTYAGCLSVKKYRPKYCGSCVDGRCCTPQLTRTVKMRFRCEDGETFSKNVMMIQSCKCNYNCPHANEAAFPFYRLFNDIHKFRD

[3] = molecular target: T3, CYR61 in the IP assays of Figure S1 (human) (UniProt O00622); test: co-IP; IP assays of Figure S1; cells, bait and antibodies not shown
T3 sequence: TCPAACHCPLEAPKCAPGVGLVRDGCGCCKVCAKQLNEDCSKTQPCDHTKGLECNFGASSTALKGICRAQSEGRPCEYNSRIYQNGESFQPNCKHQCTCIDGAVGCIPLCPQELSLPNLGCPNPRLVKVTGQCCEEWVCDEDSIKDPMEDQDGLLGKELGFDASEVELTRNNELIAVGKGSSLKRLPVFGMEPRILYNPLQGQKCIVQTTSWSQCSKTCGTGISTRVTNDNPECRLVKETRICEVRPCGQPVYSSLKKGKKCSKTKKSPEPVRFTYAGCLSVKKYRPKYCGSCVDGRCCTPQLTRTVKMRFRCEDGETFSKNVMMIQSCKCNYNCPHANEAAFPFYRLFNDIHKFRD

[4] = molecular target: Flag-PLK1 (HEK293T) (human) (UniProt P53350); test: co-IP; HEK293T cells co-expressing Myc-CYR61 and Flag-PLK1; anti-Myc or anti-Flag beads; immunoblot
GST-PLK1-WT (human) = GST-PLK1-WT (human) (UniProt P53350); test: pull-down; His-CYR61-WT incubated with GST or GST-PLK1-WT at 4 °C overnight, then anti-GST beads, western blot; both purified
[5] = molecular target: WT PLK1 (HeLa, transfected) (human) (UniProt P53350); test: co-IP; HeLa cells transfected with CYR61 and PLK1 wild type, deletion mutants or single domains; anti-Myc (Figure 3G) or anti-Flag (Figure 3H) beads; immunoblot

“FBW7, endogenous (from UniProt Q969H0 1-707)” was tested, and the binding [1] was “binds”.

“Flag-PLK1 (HEK293T) (from UniProt P53350 1-603) (enzyme)” was tested, and the binding [2] was “binds”.

In the case of NUMA (from UniProt Q14980 1-2115), the binding [3] is reported as “binds”.

In the case of “PLK1, endogenous (from UniProt P53350 1-603) (enzyme)”, the binding [1] is reported as “binds”.

With “SKP1, endogenous (from UniProt P63208 1-163)” the binding [1] was “binds”.

B1: Myc-CYR61 (HEK293T) (protein, UniProt O00622 25-381)
chain: TCPAACHCPLEAPKCAPGVGLVRDGCGCCKVCAKQLNEDCSKTQPCDHTKGLECNFGASSTALKGICRAQSEGRPCEYNSRIYQNGESFQPNCKHQCTCIDGAVGCIPLCPQELSLPNLGCPNPRLVKVTGQCCEEWVCDEDSIKDPMEDQDGLLGKELGFDASEVELTRNNELIAVGKGSSLKRLPVFGMEPRILYNPLQGQKCIVQTTSWSQCSKTCGTGISTRVTNDNPECRLVKETRICEVRPCGQPVYSSLKKGKKCSKTKKSPEPVRFTYAGCLSVKKYRPKYCGSCVDGRCCTPQLTRTVKMRFRCEDGETFSKNVMMIQSCKCNYNCPHANEAAFPFYRLFNDIHKFRD
With B1 the binding [4] was “binds”.

B2: His-CYR61-WT (protein, UniProt O00622 25-381)
chain: TCPAACHCPLEAPKCAPGVGLVRDGCGCCKVCAKQLNEDCSKTQPCDHTKGLECNFGASSTALKGICRAQSEGRPCEYNSRIYQNGESFQPNCKHQCTCIDGAVGCIPLCPQELSLPNLGCPNPRLVKVTGQCCEEWVCDEDSIKDPMEDQDGLLGKELGFDASEVELTRNNELIAVGKGSSLKRLPVFGMEPRILYNPLQGQKCIVQTTSWSQCSKTCGTGISTRVTNDNPECRLVKETRICEVRPCGQPVYSSLKKGKKCSKTKKSPEPVRFTYAGCLSVKKYRPKYCGSCVDGRCCTPQLTRTVKMRFRCEDGETFSKNVMMIQSCKCNYNCPHANEAAFPFYRLFNDIHKFRD
In the case of B2, the binding (GST-PLK1-WT (human)) is reported as “binds”.

B3: Myc-CYR61 wild type (HeLa) (protein, UniProt O00622 25-381)
chain: TCPAACHCPLEAPKCAPGVGLVRDGCGCCKVCAKQLNEDCSKTQPCDHTKGLECNFGASSTALKGICRAQSEGRPCEYNSRIYQNGESFQPNCKHQCTCIDGAVGCIPLCPQELSLPNLGCPNPRLVKVTGQCCEEWVCDEDSIKDPMEDQDGLLGKELGFDASEVELTRNNELIAVGKGSSLKRLPVFGMEPRILYNPLQGQKCIVQTTSWSQCSKTCGTGISTRVTNDNPECRLVKETRICEVRPCGQPVYSSLKKGKKCSKTKKSPEPVRFTYAGCLSVKKYRPKYCGSCVDGRCCTPQLTRTVKMRFRCEDGETFSKNVMMIQSCKCNYNCPHANEAAFPFYRLFNDIHKFRD
In the case of B3, the binding [5] is reported as “binds”.

B4: DVL-1 (protein, UniProt O14640 1-695)
chain: MAETKIIYHMDEEETPYLVKLPVAPERVTLADFKNVLSNRPVHAYKFFFKSMDQDFGVVKEEIFDDNAKLPCFNGRVVSWLVLAEGAHSDAGSQGTDSHTDLPPPLERTGGIGDSRPPSFHPNVASSRDGMDNETGTESMVSHRRERARRRNREEAARTNGHPRGDRRRDVGLPPDSASTALSSELESSSFVDSDEDGSTSRLSSSTEQSTSSRLIRKHKRRRRKQRLRQADRASSFSSITDSTMSLNIVTVTLNMERHHFLGISIVGQSNDRGDGGIYIGSIMKGGAVAADGRIEPGDMLLQVNDVNFENMSNDDAVRVLREIVSQTGPISLTVAKCWDPTPRSYFTVPRADPVRPIDPAAWLSHTAALTGALPRYGTSPCSSAVTRTSSSSLTSSVPGAPQLEEAPLTVKSDMSAVVRVMQLPDSGLEIRDRMWLKITIANAVIGADVVDWLYTHVEGFKERREARKYASSLLKHGFLRHTVNKITFSEQCYYVFGDLCSNLATLNLNSGSSGTSDQDTLAPLPHPAAPWPLGQGYPYQYPGPPPCFPPAYQDPGFSYGSGSTGSQQSEGSKSSGSTRSSRRAPGREKERRAAGAGGSGSESDHTAPSGVGSSWRERPAGQLSRGSSPRSQASATAPGLPPPHPTTKAYTVVGGPPGGPPVRELAAVPPELTGSRQSFQKAMGNPCEFFVDIM
B4 was tested, and the binding [3] was “binds”.
